Source: the supplement of paper PMC7877785
± gives the uncertainty stated by the source. Many entries were measured with a wide error.

Experiment: self-splicing fitness, log relative to wild type (ln ratio); higher = more splicing; Tetrahymena group I intron in knt gene, E. coli kanamycin selection, DiMSum; sequences stand for … in CUCUCU…GGAGGGAAAAGUUAUCAGGCAUGCACCUGGUAGCUAGUCUUUAAACCAAUAGAUUGCAUCGGUUUAAAAGGCAAGACCGUCAAAUUGCGGGAAAGGGGUCAACAGCCGUUCAGUACCAAGUCUCAGGGGAAACUUUGAGAUGGCCUUGCAAAGGGUAUGGUAAUAAGCUGACGGACAUGGUCCUAACCACGCAGCCAAGUCCUAAGUCAACAGAUCUUCUGUUGAUAUGGAUGCAGUUCACAGACUAAAUGUCGGUCGGGGAAGAUGUAUUCUUCUCAUAAGAUAUAGUCGGACCUCUCCUUAAUGGGAGCUAGCGGAUGAAGUGAUGCAACACUGGAGCCGCUGGGAACUAAUUUGUAUGCGAAAGUAUAUUGAUUAGUUUUGGAGUACUCGUGGUCG
How it was run: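 Fitness was computed with DiMSum as the error-weighted combination of replicate fold changes, kanamycin versus none, each normalised to wild type. The library randomised all eight intron nucleotides of the P1ex region, with the intron placed in the knt kanamycin-resistance gene on pET-22b(+) in E. coli BL21(DE3). Six replicate transformations were grown overnight at 37°C or 30°C on LB agar with or without 25 μg/mL kanamycin, plus 100 μg/mL carbenicillin, 50 μM IPTG and 0.2% rhamnose. Pooled colonies were amplicon-sequenced on an Illumina HiSeq 2500.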

Sequence | self-splicing fitness (ln) (30 °C) | self-splicing fitness (ln) (37 °C)
CCGAAGCAAUAUUACGCCGC | -1.87 ± 0.62 | -1.68 ± 0.63
ACGAAGCAAUAUUACGACAA | -0.701 ± 0.2 | -0.985 ± 0.19
GGAGAGCAAUAUUACGGGGG | -3.28 ± 0.77 | 
UAAUAGCAAUAUUACGACAA | -2.23 ± 0.16 | -1.01 ± 0.14
GCGGAGCAAUAUUACGGUUU | -3.52 ± 0.54 | 
CUUGAGCAAUAUUACGGCAU | -3.69 ± 0.52 | -1.93 ± 0.28
AACGAGCAAUAUUACGUUGA | -3.48 ± 0.21 | -3.32 ± 0.22
CCUGAGCAAUAUUACGUAAC | -4.29 ± 1.1 | 
CUGAAGCAAUAUUACGCCCA |  | -2.17 ± 0.5
CCGGAGCAAUAUUACGAUUC | -1.32 ± 0.82 | 
UUGGAGCAAUAUUACGUGAU | -3.31 ± 1 | -1.47 ± 1.2
CAAAAGCAAUAUUACGAAAC | -4.17 ± 0.39 | -3.75 ± 0.33
ACGUAGCAAUAUUACGUCAC | -4.24 ± 0.51 | 
CAGCAGCAAUAUUACGAGAG | -2.38 ± 0.083 | -1.81 ± 0.089
AUUGAGCAAUAUUACGCCAG | -4 ± 1 | -2.09 ± 0.64
UUGUAGCAAUAUUACGCUAU |  | -1.46 ± 0.63
ACGGAGCAAUAUUACGCUGU | -4.79 ± 0.71 | 
CUAGAGCAAUAUUACGAAAU |  | -1.62 ± 0.68
UGAGAGCAAUAUUACGGCCA |  | -0.635 ± 0.54
ACUCAGCAAUAUUACGAGGG | -1.85 ± 0.08 | -1.41 ± 0.1
GUAAAGCAAUAUUACGAGCC | -2.51 ± 0.33 | -2.56 ± 0.26
UUAGAGCAAUAUUACGGAAG |  | -1.61 ± 0.53
UGUGAGCAAUAUUACGGGAC | -1.27 ± 0.91 | -2.21 ± 0.79
GGUGAGCAAUAUUACGCCGU |  | -3.52 ± 0.73

Sequence | self-splicing fitness (ln) (30 °C) | self-splicing fitness (ln) (37 °C)
GAAAAGCAAUAUUACGCGGA | -2.25 ± 0.14 | -0.603 ± 0.13
UCAUAGCAAUAUUACGUGAC | -2.25 ± 0.51 | -3.21 ± 0.74
GAGGAGCAAUAUUACGGCUA | -1.75 ± 0.12 | -1.37 ± 0.11
GAGUAGCAAUAUUACGAAAG | -3.7 ± 0.6 | 
GGCGAGCAAUAUUACGUGGA | -3.89 ± 0.59 | -3.72 ± 0.73
CGUAAGCAAUAUUACGGGCC |  | -0.464 ± 0.68
CUUAAGCAAUAUUACGCCCU | -3.17 ± 0.32 | -1.96 ± 0.43
CGACAGCAAUAUUACGAGAA | -2.57 ± 0.55 | 
CAGGAGCAAUAUUACGCGAU |  | -3.09 ± 1
CGAGAGCAAUAUUACGGAGG |  | -2.9 ± 0.53
GUGGAGCAAUAUUACGAAGC |  | -1.62 ± 1.1
UUCAAGCAAUAUUACGUUGC | -3.68 ± 0.52 | 
GCGAAGCAAUAUUACGGGCC | -2.53 ± 0.54 | 
UGUCAGCAAUAUUACGCUAG | -0.41 ± 0.061 | -0.214 ± 0.077
CCCGAGCAAUAUUACGUUCC |  | -3.02 ± 0.52
AUUUAGCAAUAUUACGCCAG |  | -2.04 ± 0.65
CAAUAGCAAUAUUACGACCC | -0.828 ± 1 | 
GUCGAGCAAUAUUACGUUGU | -5.27 ± 1 | 
AAAGAGCAAUAUUACGCGCU |  | -1.22 ± 0.56
UAGAAGCAAUAUUACGUCAC |  | -3.41 ± 0.52
UGGGAGCAAUAUUACGAUGA | -2.75 ± 0.56 | 
UACGAGCAAUAUUACGCCCU |  | -3.25 ± 1
UAUGAGCAAUAUUACGAGGU | -4.66 ± 1 | 
CUGAAGCAAUAUUACGUUUC |  | -2.29 ± 0.53

Sequence | self-splicing fitness (ln) (30 °C) | self-splicing fitness (ln) (37 °C)
UUUAAGCAAUAUUACGCCCG | -3.27 ± 0.57 | 0.00661 ± 0.87
UAUGAGCAAUAUUACGUCCG | -1.81 ± 0.57 | 
UAGAAGCAAUAUUACGAACA | -0.322 ± 0.16 | -0.859 ± 0.17
UCGGAGCAAUAUUACGCGCC |  | -1.28 ± 0.57
UAAGAGCAAUAUUACGAACG | -4.79 ± 1 | 
AAUUAGCAAUAUUACGCCAG | -2.88 ± 0.66 | 
GGUUAGCAAUAUUACGCUGC |  | -2.63 ± 1.1
UUUGAGCAAUAUUACGUGAC | -0.746 ± 0.59 | -1.46 ± 0.53
UGUCAGCAAUAUUACGCAAG | -4.4 ± 1 | -2.33 ± 0.55
GUCAAGCAAUAUUACGCUGC | -5.19 ± 0.51 | 
GGGUAGCAAUAUUACGCUAC |  | -0.685 ± 0.82
CUCUAGCAAUAUUACGUUAA |  | -4.07 ± 0.72
UUUCAGCAAUAUUACGCGCU |  | -1.8 ± 0.66
CGGGAGCAAUAUUACGGAAC | -3.06 ± 0.62 | -3.84 ± 1
GUCAAGCAAUAUUACGCGAC |  | -3.16 ± 1
AAUAAGCAAUAUUACGCUGA | -1.81 ± 0.17 | -1.63 ± 0.18
GGAGAGCAAUAUUACGUGCC | -4.34 ± 0.72 | 
UAUUAGCAAUAUUACGUUCC | -3.37 ± 0.74 | -1.37 ± 1.2
UAUGAGCAAUAUUACGGAAA |  | -2.78 ± 0.54
AAGGAGCAAUAUUACGACCC | -0.868 ± 1.4 | -1.15 ± 0.66
UAUUAGCAAUAUUACGCCAG |  | 0.158 ± 0.54
AGGGAGCAAUAUUACGGAAU | -4.67 ± 0.73 | -2.13 ± 0.56
UCGUAGCAAUAUUACGUUAU | -4.46 ± 0.42 | -2.64 ± 0.34
AGUGAGCAAUAUUACGGAGA | -3.96 ± 0.52 | 

Looked up one by one from the list above, four records:
Sequence | self-splicing fitness (ln) (30 °C) | self-splicing fitness (ln) (37 °C)
UAUGAGCAAUAUUACGAGGU | -4.66 ± 1 | 
AACGAGCAAUAUUACGUUGA | -3.48 ± 0.21 | -3.32 ± 0.22
UUUGAGCAAUAUUACGUGAC | -0.746 ± 0.59 | -1.46 ± 0.53
ACUCAGCAAUAUUACGAGGG | -1.85 ± 0.08 | -1.41 ± 0.1

Remaining list, next part

Sequence | self-splicing fitness (ln) (30 °C) | self-splicing fitness (ln) (37 °C)
GACAAGCAAUAUUACGCUAG | -2.28 ± 0.081 | -1.36 ± 0.089
GCUGAGCAAUAUUACGUUAC | -4.23 ± 0.72 | 
CUGAAGCAAUAUUACGGCAC | -3.16 ± 1 | -1.45 ± 0.55
UGAUAGCAAUAUUACGAGAA | -1.31 ± 0.67 | -2.29 ± 0.65
CAAUAGCAAUAUUACGCUAU |  | -1.96 ± 0.51
GGUUAGCAAUAUUACGAAGA | -1.68 ± 0.69 | -1.74 ± 0.69
UUCCAGCAAUAUUACGCUAC | -3.97 ± 0.75 | 0.608 ± 0.79
CAGAAGCAAUAUUACGUAGU | -4.18 ± 0.24 | -1.97 ± 0.17
CAAGAGCAAUAUUACGAUCU | -5.17 ± 0.71 | -1.79 ± 0.31
UAGUAGCAAUAUUACGAGGC |  | -3.27 ± 0.6
AACGAGCAAUAUUACGAAAC | -4.97 ± 0.71 | 
GAGCAGCAAUAUUACGGCUC | -2.94 ± 1.1 | -0.693 ± 0.82
GCAAAGCAAUAUUACGUGAA | -0.989 ± 0.099 | -0.0746 ± 0.12
AGUGAGCAAUAUUACGUAUC |  | -3.57 ± 0.52
CGUGAGCAAUAUUACGAAAA | -4.6 ± 1 | -2.88 ± 0.43
UUUGAGCAAUAUUACGUUCC |  | -2.64 ± 0.75
ACGGAGCAAUAUUACGCCCU | -3.02 ± 0.77 | -1 ± 0.78
GACCAGCAAUAUUACGGUCC |  | -4.49 ± 0.59
GACUAGCAAUAUUACGUGCA | -0.898 ± 0.059 | -0.504 ± 0.068
GACAAGCAAUAUUACGAGGA | -3.16 ± 0.21 | -2.42 ± 0.14
CAUAAGCAAUAUUACGAAGC |  | -1.39 ± 0.87
GGCCAGCAAUAUUACGCCGC |  | -2.46 ± 0.54
